“And” between values parts separate entries of the source, which are not always exact repeats. Identical values can stand only once. Out of some 400,000 compounds screened, about 5,500 (1.4%) were called active. The shares of active, inactive and inconclusive entries below differ from those in the screen. Calls come from the whole dose curve; as a rule, active = well fitted cell-killing curve with a large enough effect; inconclusive = small, poorly fitted or top-dose-only effect, or effect the other way; inactive = flat fitted curve, though single readings scatter. A potency beside an inconclusive call is a rough fit, not a confirmed value.
Assay: qHTS assay for MDR1-selective chemotherapeutics: Primary screen using the parental adenocarcinoma cell KB-3-1; note: nearly all actives have a fitted effect of over 60% in size
Settings: KB-3-1 viability, CellTiter-Glo ATP luminescence, 72 h; activity change, negative = cytotoxic: at 46.1 µM (top of the series)
Summary of the method: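 Cytotoxicity measured as CellTiter-Glo luminescence after 72 h at 37 C. Compound titrations were pinned onto drug-naive KB-3-1 parental adenocarcinoma cells grown in DMEM with 10% FBS, and normalized data fitted to concentration-response curves.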
% is set by controls: 0 for no effect and ±100 for the full control effect; potency is the fitted concentration of half-maximal effect.

Row | SMILES | Potency | activity change, negative = cytotoxic
1 | CCc1cccc(NS(=O)(=O)c2ccc3c(c2)N(C)CCO3)c1 | inactive | –
2 | O=C(NCc1ccc(F)cc1F)[C@@H]1CCCN1C(=O)[C@@H]1CCCN1C(=O)c1cccc(Cl)c1 | – | inconclusive: 14.5%
3 | O=C(c1ccc2c(c1)N(Cc1ccc(F)cc1)C(=O)c1ccccc1S2(=O)=O)N1CCN(c2ccccn2)CC1 | inconclusive: 11.6 µM [cytotoxic, partial curve] and inconclusive: 29.1 µM [cytotoxic, single point] | –
4 | Cc1ccccc1-c1n[nH]c(=S)n1/N=C/c1ccc(-c2ccccc2Br)o1 | inconclusive: 3.26 µM [cytotoxic, partial curve, poor fit] | –
5 | Cc1ccc(C2CC(C(F)(F)F)n3nc(C(=O)NCc4c(C)nn(C)c4C)c(Cl)c3N2)cc1 (stereo unspecified) | active: 20.6 µM | –
6 | S=C(NCCCN1CCOCC1)N1CCN(c2cccc(Cl)c2)CC1 | inconclusive: 25.9 µM [cytotoxic, single point] | –
7 | COC(=O)[C@]12CCCCC=C1N(Cc1ccco1)C(=O)[C@H](CC(=O)NCc1cccc3ccccc13)C2 | inconclusive: 29.1 µM [cytotoxic, single point] | –
8 | Cc1ccc(Cl)cc1N(C)C(=O)Cn1ncc2c([nH]c3ccccc32)c1=O | inactive | –
9 | O=c1ccc(S(=O)(=O)N2CCCC2)cn1Cc1ccc(Cl)cc1Cl | inconclusive: 11.6 µM [cytotoxic, partial curve] | –
10 | CC1(C(=O)NCc2cccnc2)Cc2c(-c3cccc(C(F)(F)F)c3)ccnc2O1 (stereo unspecified) | inconclusive: 29.1 µM [cytotoxic, single point] | –
11 | Cc1ccc(S(=O)(=O)NCC(=O)NCC(=O)NCCc2ccc(Cl)cc2)cc1C | inactive | –
12 | COc1ccc(C2CC(=O)Oc3cc(C)c(Cl)c(C)c32)cc1 (stereo unspecified) | inactive | –
13 | Cc1ccc(S(=O)(=O)/N=C2\C=C(NS(=O)(=O)c3ccc(C)cc3)C(=O)c3ccccc32)cc1 | inconclusive: 29.1 µM [cytotoxic, single point] | –
14 | CCc1ccc(NC(=S)NC(=O)CC(C)C)cc1 | inactive | –
15 | CC1=CC(C)(C)N(S(=O)(=O)c2ccc(C)cc2)c2ccccc21 | active: 16.4 µM | –
16 | CCN1CCN(CC(=O)Nc2cc(S(=O)(=O)N3CCCCC3)ccc2Cl)CC1 | inactive | –
17 | Cn1c(=O)c2ccccc2n2c(CCl)nnc12 | inconclusive: 29.1 µM [cytotoxic, single point] | –
18 | Cc1ccc(N(CC(=O)Nc2cc(C)cc(C)c2)S(=O)(=O)c2c(C)noc2C)cc1 | inconclusive: 29.1 µM [cytotoxic, single point] | –
19 | CCC(c1nnnn1-c1ccc2c(c1)OCCO2)N1CCN(c2cccc(C)c2C)CC1 (stereo unspecified) | inconclusive: 18.4 µM [cytotoxic, single point] | –
20 | Cc1nn(-c2ccc(F)cc2)c(-n2cccc2)c1C(=O)N1CCN(c2ccccc2F)CC1 | inconclusive: 29.1 µM [cytotoxic, single point] | –
21 | Cc1ccc(Nc2nc3ccccc3[nH]2)nc1 | inconclusive: 29.1 µM [cytotoxic, single point] | –
22 | O=C(Nc1ccc(S(=O)(=O)N2CCc3ccccc3C2)cc1)C1CCCO1 (stereo unspecified) | inconclusive: 29.1 µM [cytotoxic, single point] | –
23 | C(=C\c1nc(N2CCCC2)c2ccccc2n1)/c1ccccc1 | active: 23.1 µM | –
24 | Cc1cccc(-n2nnc(C(=O)Nc3ccc(F)cc3)c2N)c1 | inactive | –

Row | SMILES | Potency | activity change, negative = cytotoxic
25 | Cc1c(NC(=O)c2cc3c(s2)-c2ccccc2OC3)cccc1[N+](=O)[O-] | inconclusive: 29.1 µM [cytotoxic, single point] | –
26 | C=C(C)c1cccc(C(C)(C)NC(=O)Nc2ccc(OC)cc2)c1 | inactive | –
27 | OC[C@@H]1CN(Cc2ccc(Cl)cc2)C[C@H](n2cnc3c(N4CCN(c5ccccc5)CC4)ncnc32)O1 | inconclusive: 29.1 µM [cytotoxic, single point] | –
28 | COc1ccccc1OCC(=O)Nc1ccc(S(=O)(=O)Nc2onc(C)c2C)cc1 | inactive | –
29 | CCCOc1ccc(NC(=O)CC2C(=O)N(c3ccc(C)cc3)C(=O)N2C2CCCC2)cc1 (stereo unspecified) | inconclusive: 29.1 µM [cytotoxic, single point] | –
30 | CS(=O)(=O)N1CCC(C(=O)NCCN2CCN(Cc3ccccc3)CC2)CC1 | inactive | –
31 | CCOC(=O)c1c(NC(=O)CC(C)C)sc(C(C)=O)c1C | inactive | –
32 | Cc1ccc(C(=O)NNC(=O)c2ccccc2O)cc1S(=O)(=O)N1CCCCC1 | inconclusive: 29.1 µM [cytotoxic, single point] | –
33 | CCC(C)(C)C1CCC2(CC1)NC(=O)N(CC(=O)N(C)Cc1ccc3c(c1)OCCO3)C2=O (stereo unspecified) | inconclusive: 23.1 µM [cytotoxic, single point] | –
34 | COc1ccc([C@H]2CC(=O)C=C(c3cc(C=O)ccc3OC)C2)cc1 | active: 16.4 µM | –
35 | CC(CCc1ccccc1)NC(=O)C(=O)NCc1ccccc1 (stereo unspecified) | inactive | –
36 | COc1cc(Cl)c(NC2=CC(=O)C(=O)c3ccccc32)c(OC)c1 | active: 9.2 µM | –
37 | CCOC(=O)C(C)Sc1ncnc2nc[nH]c12 (stereo unspecified) | inconclusive: 23.1 µM [cytotoxic, single point] | –
38 | COc1ccc(S(=O)(=O)NNC(=O)Nc2ccc(C)cc2C)c(OC)c1 | inconclusive: 29.1 µM [rising, single point] | –
39 | CC1(C)CC(=O)C2=C(C1)NC1=C(C(=O)c3ccccc31)C2c1ccc(O)cc1 (stereo unspecified) | inactive | –
40 | COc1cccc(/C=N/NC(=O)CNC(=O)c2ccc(S(=O)(=O)N3CCOCC3)cc2)c1OC | inconclusive: 29.1 µM [rising, single point] | –
41 | CCCCn1c(N)c(N(CCOC)C(=O)c2cc(S(=O)(=O)N3CCOCC3)ccc2Cl)c(=O)[nH]c1=O | inactive | –
42 | NC(=O)C1(Nc2ccc(-c3ccc(Cl)cc3)cc2)CCCC1 | – | inconclusive: 15.3%
43 | O=C(NC1CCCC1)C(c1ccc(F)cc1)N(C(=O)c1csnn1)c1ccccc1F (stereo unspecified) | inconclusive: 14.6 µM [rising, single point] | –
44 | CN1/C(=C\C(=S)Nc2ccccc2)C(C)(C)c2ccccc21 | inconclusive: 6.51 µM [cytotoxic, partial curve] | –
45 | Cc1ccc2oc(-c3cccc(NC(=O)C4CCCO4)c3)nc2c1 (stereo unspecified) | inactive | –
46 | Oc1ccc(-c2csc(Nc3ccccn3)n2)cc1 | inconclusive: 29.1 µM [cytotoxic, single point] | –
47 | CCSc1nc2ccccc2[nH]1 | inactive | –
48 | CCOC(=O)C(=Cc1cn(C)c2ccc(S(=O)(=O)N(C)C)cc12)C(=O)OCC | inconclusive: 14.6 µM [cytotoxic, partial curve, poor fit] | –

Row | SMILES | Potency | activity change, negative = cytotoxic
49 | CSc1nc(C2CC2)cc(-c2cccs2)c1C#N | inconclusive: 29.1 µM [cytotoxic, single point] | –
50 | C[C@H]1CN([C@@H](C)CO)C(=O)c2cc(C#Cc3ccccn3)cnc2O[C@@H]1CN(C)Cc1ccccc1 | inconclusive: 16.4 µM [rising, partial curve] | –
51 | C=CCSC(=C(C#N)C#N)c1cc2c([nH]1)CCCC2 | active: 18.4 µM | –
52 | CS(=O)(=O)Nc1cccc(NC(=O)c2cccc3c(-c4cccc(C(N)=O)c4)coc23)c1 | inconclusive: 0.651 µM [cytotoxic, full curve, poor fit] | –
53 | COc1cccc(-c2nn(-c3ccc(C)cc3)cc2C(=O)NCC2CCCO2)c1 (stereo unspecified) | inconclusive: 29.1 µM [rising, single point] | –
54 | C=C1CC(COc2ccc3c(C)c(Cl)c(=O)oc3c2)(c2ccccc2)OC1=O (stereo unspecified) | inconclusive: 18.4 µM [cytotoxic, single point] | –
55 | COc1ccc(-c2cc(C(=O)N3CCCc4ccccc43)no2)cc1OC | inconclusive: 31.6 µM [cytotoxic, single point] | –
56 | O=C1c2ccccc2NC(c2ccc(Cl)cc2Cl)N1O (stereo unspecified) | inconclusive: 18.4 µM [cytotoxic, single point] | –
57 | Cc1ccc(S(=O)(=O)c2nnn3c2nc(N2CCOCC2)c2ccccc23)cc1C | – | inconclusive: -16.6%
58 | Fc1ccc(-c2csc(Nc3ccccn3)n2)c(F)c1 | active: 18.4 µM | –
59 | COc1ccc(C(=O)NC2CC(C)(C)NC(C)(C)C2)cc1S(=O)(=O)N1CCOCC1 | inconclusive: 18.4 µM [rising, single point] | –
60 | CCCCCCc1cc2cc(S(=O)(=O)c3ccc(F)c(Cl)c3)c(=O)oc2cc1O | inactive | –
61 | CCCc1nc(SCC(=O)c2ccc(OC)cc2)c2ccccc2n1 | inactive | –
62 | O=C1CN(C(=O)c2ccc(S(=O)(=O)N3CCCCC3)cc2)C(c2ccc(F)cc2)c2cc(Br)ccc2N1 (stereo unspecified) | inactive | –
63 | O=c1[nH]nc(Sc2ncnc3sccc23)n1CCc1ccccc1 | inconclusive: 20.6 µM [cytotoxic, single point] | –
64 | COc1cccc(C(=O)CSc2nnc(COc3cccc4cccnc34)o2)c1 | inactive | –
65 | C=CCN(CC=C)C(=S)NC(=O)c1ccc(OC)c(Br)c1 | inconclusive: 18.4 µM [cytotoxic, single point] | –
66 | Cc1[nH]c2ccccc2c1CN1CCN(c2ccccn2)CC1 | inactive | –
67 | CC(C)CC(=O)N/C(N)=N/c1nc2ccccc2o1 | inconclusive: 29.1 µM [cytotoxic, single point] | –
68 | COc1ccc(Cl)cc1-c1nc(-c2ccc(NC(=O)c3cccs3)cc2)no1 | inconclusive: 2.06 µM [rising, partial curve, poor fit] | –
69 | Cc1cnn(C(=S)NCCc2ccccc2)c1 | inactive | –
70 | Cc1nc(C)c(CCNC(=O)c2cccc(Cl)c2)s1 | inconclusive: 0.651 µM [rising, full curve] | –
71 | O=C(CSc1nnc(-c2cccnc2)o1)Nc1ccc(Br)cc1 | inconclusive: 29.1 µM [rising, single point] | –
